This is an account of results in publication PMC12557367 (Journal of Medicinal Chemistry, 2025).

Numbered stars: 1 amine (or outer) side, 2 acyl side, 3 side chain; on linkers, the order of the positions; unused ones are H or OH. Bridge positions count the residues as written; N and C are the ends. Square brackets hold non-standard residues; d marks the D form. * marks the point of attachment. X2 = O=C(O)c1ccc(C(=O)*)cc1-c1c2ccc(=O)cc-2oc2cc(O)ccc12; DOTA = O=C(O)CN1CCN(CC(=O)O)CCN(CC(=O)*)CCN(CC(=O)O)CC1; TATA = O=C(CC[*:1])N1CN(C(=O)CC[*:2])CN(C(=O)CC[*:3])C1; X1 = O=C(O)CN1CCN(CC(=O)O)CCN([C@H](CCC(=O)*)C(=O)O)CC1; 1Nal = N[C@@H](Cc1cccc2ccccc12)C(=O)O; 2Nal = N[C@@H](Cc1ccc2ccccc2c1)C(=O)O; Hyp = O=C(O)[C@@H]1C[C@@H](O)CN1; hArg = N=C(N)NCCCC[C@H](N)C(=O)O; hSer = N[C@@H](CCO)C(=O)O; Nle = CCCC[C@H](N)C(=O)O

This data set is described as follows: general procedure: Fmoc solid-phase peptide synthesis; Fmoc-Rink Amide resin (2-ClTrtCl resin for 8d); HATU/DIPEA. The note with it: whole synthesis; for final HPLC purity: 230 nm; for isolated yield: on resin loading.

In the case of “CCCC[C@@H]1NC(=O)[C@@H]2CSCCC(=O)N3CN(CN(C3)C(=O)CCSC[C@H](NC(C)=O)C(=O)N3CCC[C@H]3C(=O)N[C@@H](Cc3cccc4ccccc34)C(=O)N[C@H](CC(=O)O)C(=O)N2)C(=O)CCSC[C@@H](C(N)=O)NC(=O)[C@H](Cc2c[nH]c3ccccc23)NC(=O)[C@@H]2C[C@@H](O)CN2C(=O)[C@@H]2CCCN2C(=O)[C@H]([C@@H](C)O)NC(=O)[C@H](CO)NC(=O)[C@H](Cc2c[nH]c3ccccc23)NC(=O)[C@H](CC(=O)O)NC(=O)[C@H](CCCCNC(=N)N)NC1=O (Ac-CP[1Nal][dD]C[Nle][hArg]DWSTP[Hyp]WC-NH2; linker 1-5-15 via TATA)”, the “final HPLC purity” value is greater than 97% and the isolated yield is listed as 10%.
“CCOC[C@@H]1NC(=O)[C@@H]2CSCCC(=O)N3CN(CN(C3)C(=O)CCSC[C@H](NC(=O)CC[C@H](C(=O)O)N3CCN(CC(=O)O)CCN(CC(=O)O)CC3)C(=O)N3CCC[C@H]3C(=O)N[C@@H](Cc3cccc4ccccc34)C(=O)N[C@H](CC(=O)O)C(=O)N2)C(=O)CCSC[C@@H](C(N)=O)NC(=O)[C@H](Cc2c[nH]c3ccccc23)NC(=O)[C@@H]2C[C@@H](O)CN2C(=O)[C@@H]2CCCN2C(=O)[C@H]([C@@H](C)O)NC(=O)[C@H](CO)NC(=O)[C@H](Cc2c[nH]c3ccccc23)NC(=O)[C@H](CC(=O)O)NC(=O)[C@H](CCCCNC(=N)N)NC1=O (X1-CP[1Nal][dD]CS(Et)[hArg]DWSTP[Hyp]WC-NH2; linker 1-5-15 via TATA; SMILES CCOC[C@@H]1NC(=O)[C@@H]2CSCCC(=O)N3CN(CN(C3)C(=O)CCSC[C@H](NC(=O)CC[C@H](C(=O)O)N3CCN(CC(=O)O)CCN(CC(=O)O)CC3)C(=O)N3CCC[C@H]3C(=O)N[C@@H](Cc3cccc4ccccc34)C(=O)N[C@H](CC(=O)O)C(=O)N2)C(=O)CCSC[C@@H](C(N)=O)NC(=O)[C@H](Cc2c[nH]c3ccccc23)NC(=O)[C@@H]2C[C@@H](O)CN2C(=O)[C@@H]2CCCN2C(=O)[C@H]([C@@H](C)O)NC(=O)[C@H](CO)NC(=O)[C@H](Cc2c[nH]c3ccccc23)NC(=O)[C@H](CC(=O)O)NC(=O)[C@H](CCCCNC(=N)N)NC1=O)”: the “final HPLC purity” value is greater than 98% and the isolated yield amounted to 7%.
In the same order, the values of “CCSC[C@@H]1NC(=O)[C@@H]2CSCCC(=O)N3CN(CN(C3)C(=O)CCSC[C@H](NC(=O)CC[C@H](C(=O)O)N3CCN(CC(=O)O)CCN(CC(=O)O)CC3)C(=O)N3CCC[C@H]3C(=O)N[C@@H](Cc3cccc4ccccc34)C(=O)N[C@H](CC(=O)O)C(=O)N2)C(=O)CCSC[C@@H](C(N)=O)NC(=O)[C@H](Cc2c[nH]c3ccccc23)NC(=O)[C@@H]2C[C@@H](O)CN2C(=O)[C@@H]2CCCN2C(=O)[C@H]([C@@H](C)O)NC(=O)[C@H](CO)NC(=O)[C@H](Cc2c[nH]c3ccccc23)NC(=O)[C@H](CC(=O)O)NC(=O)[C@H](CCCCNC(=N)N)NC1=O (X1-CP[1Nal][dD]CC(Et)[hArg]DWSTP[Hyp]WC-NH2; linker 1-5-15 via TATA; SMILES CCSC[C@@H]1NC(=O)[C@@H]2CSCCC(=O)N3CN(CN(C3)C(=O)CCSC[C@H](NC(=O)CC[C@H](C(=O)O)N3CCN(CC(=O)O)CCN(CC(=O)O)CC3)C(=O)N3CCC[C@H]3C(=O)N[C@@H](Cc3cccc4ccccc34)C(=O)N[C@H](CC(=O)O)C(=O)N2)C(=O)CCSC[C@@H](C(N)=O)NC(=O)[C@H](Cc2c[nH]c3ccccc23)NC(=O)[C@@H]2C[C@@H](O)CN2C(=O)[C@@H]2CCCN2C(=O)[C@H]([C@@H](C)O)NC(=O)[C@H](CO)NC(=O)[C@H](Cc2c[nH]c3ccccc23)NC(=O)[C@H](CC(=O)O)NC(=O)[C@H](CCCCNC(=N)N)NC1=O)” are greater than 97% and 8%.
The corresponding values for “COCC[C@@H]1NC(=O)[C@@H]2CSCCC(=O)N3CN(CN(C3)C(=O)CCSC[C@H](NC(=O)CC[C@H](C(=O)O)N3CCN(CC(=O)O)CCN(CC(=O)O)CC3)C(=O)N3CCC[C@H]3C(=O)N[C@@H](Cc3cccc4ccccc34)C(=O)N[C@H](CC(=O)O)C(=O)N2)C(=O)CCSC[C@@H](C(N)=O)NC(=O)[C@H](Cc2c[nH]c3ccccc23)NC(=O)[C@@H]2C[C@@H](O)CN2C(=O)[C@@H]2CCCN2C(=O)[C@H]([C@@H](C)O)NC(=O)[C@H](CO)NC(=O)[C@H](Cc2c[nH]c3ccccc23)NC(=O)[C@H](CC(=O)O)NC(=O)[C@H](CCCCNC(=N)N)NC1=O [4] (X1-CP[1Nal][dD]C[hSer](Me)[hArg]DWSTP[Hyp]WC-NH2; linker 1-5-15 via TATA)” are greater than 98% and 9%.
In the same order, the values of “CSCC[C@@H]1NC(=O)[C@@H]2CSCCC(=O)N3CN(CN(C3)C(=O)CCSC[C@H](N)C(=O)N3CCC[C@H]3C(=O)N[C@@H](Cc3cccc4ccccc34)C(=O)N[C@H](CC(=O)O)C(=O)N2)C(=O)CCSC[C@@H](C(N)=O)NC(=O)[C@H](Cc2c[nH]c3ccccc23)NC(=O)[C@@H]2C[C@@H](O)CN2C(=O)[C@@H]2CCCN2C(=O)[C@H]([C@@H](C)O)NC(=O)[C@H](CO)NC(=O)[C@H](Cc2c[nH]c3ccccc23)NC(=O)[C@H](CC(=O)O)NC(=O)[C@H](CCCCNC(=N)N)NC1=O” are greater than 98% and 4%.
As for “CSCC[C@@H]1NC(=O)[C@@H]2CSCCC(=O)N3CN(CN(C3)C(=O)CCSC[C@H](NC(=O)CC[C@H](C(=O)O)N3CCN(CC(=O)O)CCN(CC(=O)O)CC3)C(=O)N3CCC[C@H]3C(=O)N[C@@H](Cc3ccc4ccccc4c3)C(=O)N[C@H](CC(=O)O)C(=O)N2)C(=O)CCSC[C@@H](C(N)=O)NC(=O)[C@H](Cc2c[nH]c3ccccc23)NC(=O)[C@@H]2C[C@@H](O)CN2C(=O)[C@@H]2CCCN2C(=O)[C@H]([C@@H](C)O)NC(=O)[C@H](CO)NC(=O)[C@H](Cc2c[nH]c3ccccc23)NC(=O)[C@H](CC(=O)O)NC(=O)[C@H](CCCNC(=N)N)NC1=O (X1-CP[2Nal][dD]CMRDWSTP[Hyp]WC-NH2; linker 1-5-15 via TATA)”, the “final HPLC purity” value is on record as greater than 95% and the isolated yield is recorded as 6%.
Consider “CSCC[C@@H]1NC(=O)[C@@H]2CSCCC(=O)N3CN(CN(C3)C(=O)CCSC[C@H](NC(=O)CN3CCN(CC(=O)O)CCN(CC(=O)O)CCN(CC(=O)O)CC3)C(=O)N3CCC[C@H]3C(=O)N[C@@H](Cc3ccc4ccccc4c3)C(=O)N[C@H](CC(=O)O)C(=O)N2)C(=O)CCSC[C@@H](C(N)=O)NC(=O)[C@H](Cc2c[nH]c3ccccc23)NC(=O)[C@@H]2C[C@@H](O)CN2C(=O)[C@@H]2CCCN2C(=O)[C@H]([C@@H](C)O)NC(=O)[C@H](CO)NC(=O)[C@H](Cc2c[nH]c3ccccc23)NC(=O)[C@H](CC(=O)O)NC(=O)[C@H](CCCNC(=N)N)NC1=O ({DOTA}-CP[2Nal][dD]CMRDWSTP[Hyp]WC-NH2; linker 1-5-15 via TATA)”, for which the “final HPLC purity” value is given as greater than 99% and the isolated yield turned out to be 4%.
In the same order, the values of “CSCC[C@@H]1NC(=O)[C@@H]2CSCCC(=O)N3CN(CN(C3)C(=O)CCSC[C@H](NC(=O)CN3CCN(CC(=O)O)CCN(CC(=O)O)CCN(CC(=O)O)CC3)C(=O)N3CCC[C@H]3C(=O)N[C@@H](Cc3cccc4ccccc34)C(=O)N[C@H](CC(=O)O)C(=O)N2)C(=O)CCSCC(C(N)=O)NC(=O)[C@H](Cc2c[nH]c3ccccc23)NC(=O)[C@@H]2C[C@@H](O)CN2C(=O)[C@@H]2CCCN2C(=O)[C@H]([C@@H](C)O)NC(=O)[C@H](CO)NC(=O)[C@H](Cc2c[nH]c3ccccc23)NC(=O)[C@H](CC(=O)O)NC(=O)[C@H](CCCCNC(=N)N)NC1=O” are greater than 99% and 12%.
The corresponding values for “CSCC[C@@H]1NC(=O)[C@@H]2CSCCC(=O)N3CN(CN(C3)C(=O)CCSC[C@H](NC(=O)c3ccc(C(=O)O)c(-c4c5ccc(=O)cc-5oc5cc(O)ccc45)c3)C(=O)N3CCC[C@H]3C(=O)N[C@@H](Cc3ccc4ccccc4c3)C(=O)N[C@H](CC(=O)O)C(=O)N2)C(=O)CCSC[C@@H](C(N)=O)NC(=O)[C@H](Cc2c[nH]c3ccccc23)NC(=O)[C@@H]2C[C@@H](O)CN2C(=O)[C@@H]2CCCN2C(=O)[C@H]([C@@H](C)O)NC(=O)[C@H](CO)NC(=O)[C@H](Cc2c[nH]c3ccccc23)NC(=O)[C@H](CC(=O)O)NC(=O)[C@H](CCCNC(=N)N)NC1=O (X2-CP[2Nal][dD]CMRDWSTP[Hyp]WC-NH2; linker 1-5-15 via TATA; SMILES CSCC[C@@H]1NC(=O)[C@@H]2CSCCC(=O)N3CN(CN(C3)C(=O)CCSC[C@H](NC(=O)c3ccc(C(=O)O)c(-c4c5ccc(=O)cc-5oc5cc(O)ccc45)c3)C(=O)N3CCC[C@H]3C(=O)N[C@@H](Cc3ccc4ccccc4c3)C(=O)N[C@H](CC(=O)O)C(=O)N2)C(=O)CCSC[C@@H](C(N)=O)NC(=O)[C@H](Cc2c[nH]c3ccccc23)NC(=O)[C@@H]2C[C@@H](O)CN2C(=O)[C@@H]2CCCN2C(=O)[C@H]([C@@H](C)O)NC(=O)[C@H](CO)NC(=O)[C@H](Cc2c[nH]c3ccccc23)NC(=O)[C@H](CC(=O)O)NC(=O)[C@H](CCCNC(=N)N)NC1=O)” are greater than 99% and 5%.
The corresponding values for “CSCC[C@@H]1NC(=O)[C@@H]2CSCCC(=O)N3CN(CN(C3)C(=O)CCSC[C@H](NC(=O)c3ccc(C(=O)O)c(-c4c5ccc(=O)cc-5oc5cc(O)ccc45)c3)C(=O)N3CCC[C@H]3C(=O)N[C@@H](Cc3cccc4ccccc34)C(=O)N[C@H](CC(=O)O)C(=O)N2)C(=O)CCSC[C@@H](C(N)=O)NC(=O)[C@H](Cc2c[nH]c3ccccc23)NC(=O)[C@@H]2C[C@@H](O)CN2C(=O)[C@@H]2CCCN2C(=O)[C@H]([C@@H](C)O)NC(=O)[C@H](CO)NC(=O)[C@H](Cc2c[nH]c3ccccc23)NC(=O)[C@H](CC(=O)O)NC(=O)[C@H](CCCCNC(=N)N)NC1=O” are greater than 98% and 12%.
In the case of “CSCC[C@@H]1NC(=O)[C@@H]2CSCCC(=O)N3CN(CN(C3)C(=O)CCSC[C@H](NC(=O)c3ccc(C(=O)O)c(-c4c5ccc(=[N+](C)C)cc-5oc5cc(N(C)C)ccc45)c3)C(=O)N3CCC[C@H]3C(=O)N[C@@H](Cc3cccc4ccccc34)C(=O)N[C@H](CC(=O)O)C(=O)N2)C(=O)CCSC[C@@H](C(N)=O)NC(=O)[C@H](Cc2c[nH]c3ccccc23)NC(=O)[C@@H]2C[C@@H](O)CN2C(=O)[C@@H]2CCCN2C(=O)[C@H]([C@@H](C)O)NC(=O)[C@H](CO)NC(=O)[C@H](Cc2c[nH]c3ccccc23)NC(=O)[C@H](CC(=O)O)NC(=O)[C@H](CCCCNC(=N)N)NC1=O”, the “final HPLC purity” value is greater than 98% and the isolated yield is on record as 4%.
